# The other results are listed elsewhere or left out. Further columns of the screen follow, without active or inactive calls. The list favours compounds with an active or inconclusive main result. Potencies come from curve fits of mixed quality, noted in brackets.
# Test: qHTS Assay to Find Inhibitors of Chronic Active B-Cell Receptor Signaling
# Details: ABC-DLBCL IkBa-CBG/CBR reporter, luminescence ratio (green luciferase fused to IkBa over red control in TMD8 lymphoma cells), 4 h
# How it was run: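 Cell line TMD8 (human ABC DLBCL), stably expressing tet-inducible CBG68-IkBa fusion and CBR; IMDM/0.5% FBS; cpd up to 46 uM; dox induction, 4 h, 37C/5% CO2; dual luminescence; green/red ratio; MG132 control.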
# [1] = measured here: CBR red luminescence, cell number
# [2] = measured here: IkBa-CBG green luminescence
Compound,AC50 [1],AC50 [2]
CCOC(=O)/C(=C\c1cccc(O)c1)c1nc2sc(C)c(C)c2c(=O)[nH]1,"18.4 µM [falling, partial curve]",–
COc1cc(OC)cc(-n2nnnc2SCC(=O)NCCc2ccc(OC)c(OC)c2)c1,"22.4 µM [rising, single point]",–
O=C(CSc1cccs1)Nc1ccc2ccccc2c1,"12.6 µM [falling, single point]",–
COc1ccc(N=C(c2ccccc2)c2c(C)[nH]n(-c3ccccc3)c2=O)c(OC)c1,"0.708 µM [rising, partial curve, poor fit]",–
N#CCSc1nc(-c2ccccc2)nc2ccccc12,"20 µM [falling, single point]",–
O=C(CC(Nc1cccc(Cl)c1Cl)C(=O)O)c1ccccc1 (stereo unspecified),"25.1 µM [falling, single point]","12.6 µM [rising, partial curve, poor fit]"
Cc1ccc2[nH]c(C(=O)O)c(NC(=O)CN3CCN(c4cccc(C)c4C)CC3)c2c1,"1.26 µM [rising, partial curve]",–
CCN(CC)C(=O)CC(c1ccc(F)cc1)c1ccc(OC(C)C)cc1 (stereo unspecified),"25.9 µM [falling, partial curve, poor fit]",–
CCOc1ccc2nc(SCC(=O)Nc3ccc4c(c3)OCCO4)[nH]c2c1,"18.4 µM [falling, partial curve, poor fit]",–
Cc1ccc(-c2nnn(CC(=O)N(CC3CCCO3)C(C(=O)NC3CCCCC3)c3ccc(F)cc3)n2)o1 (stereo unspecified),"23.1 µM [falling, single point]",–
CC1CCC(C(=O)c2c(O)c3ccccc3oc2=O)CC1 (stereo unspecified),"11.6 µM [falling, partial curve, poor fit]",–
COC(=O)Nc1ccc(S(=O)(=O)NCc2ccccn2)cc1,"6.31 µM [falling, single point]",–
Cc1ccccc1NC(=O)CSc1nc2ccccc2c(=O)n1C,"10 µM [falling, partial curve]",–
CCOC(=O)C1CCN(c2nc3c(C)cccn3c(=O)c2/C=C(\C#N)S(=O)(=O)c2ccccc2)CC1,–,"12.6 µM [rising, partial curve, poor fit]"
Cc1ccc(-c2ccc(SCC(=O)Nc3ccc4c(c3)OCCO4)nn2)cc1,"25.9 µM [falling, single point]",–
COc1ccc(CNCC(O)(c2ccccc2)c2ccccc2)cc1OC,"2.82 µM [falling, partial curve, poor fit]",–
O=C(C1CCN(S(=O)(=O)c2cccs2)CC1)N1CCc2ccccc2C1,"29.1 µM [rising, single point]",–
Cc1ccccc1-c1nc(CS(=O)(=O)CC(=O)N2CCc3ccccc32)c(C)o1,"0.0411 µM [rising, full curve, poor fit]",–
Cc1cccc(C(=O)Nc2sc3c(c2C(=O)O)CCC3)c1,"0.501 µM [falling, full curve]",–
O=C(ON=C1CCN(S(=O)(=O)c2ccccc2)CC1)c1cccc(Cl)c1,"9.2 µM [rising, partial curve, poor fit]",–
C=CCNC(=S)N/N=C/c1ccc(-c2cccc([N+](=O)[O-])c2)o1,"7.94 µM [rising, partial curve, poor fit]",–

Compound,AC50 [1],AC50 [2]
CCc1ccc(OCC(=O)N/N=C2\CC(=O)c3ccccc32)cc1,"20.6 µM [falling, single point]",–
NC(=S)N/N=C/c1cc([N+](=O)[O-])ccc1OCCOc1ccccc1,"18.4 µM [rising, single point]",–
CCCC(c1nnnn1CC1CCCO1)N1CCN(c2nc3ccccc3s2)CC1 (stereo unspecified),"0.13 µM [falling, full curve, poor fit]",–
O=C(COc1ccc(Br)cc1CNCCc1ccccc1)NCc1ccccc1,"35.5 µM [falling, single point]",–
CCc1cc2c(=O)c(-c3ccc4c(c3)OCCO4)c(C)oc2cc1OS(C)(=O)=O,"18.4 µM [falling, single point]",–
C=CCN(C(=O)CNC(=O)c1ccco1)C(C(=O)NC1CCCCC1)c1ccccc1 (stereo unspecified),"6.51 µM [rising, single point]",–
C=CCN1C(=O)/C(=C/c2ccc(OC(C)=O)c(OCC)c2[N+](=O)[O-])SC1=S,"3.98 µM [falling, partial curve]",–
OCCN(CCO)c1ncnc2c1oc1ccc(Br)cc12,"0.0731 µM [rising, full curve, poor fit]",–
COc1ccc(CC(=O)N(C)Cc2cccc(F)c2)cc1S(=O)(=O)N1CCOCC1,"4.61 µM [rising, full curve, poor fit]",–
CS(=O)(=O)N1CCC(C(=O)NCCc2ccccc2)CC1,"20.6 µM [rising, single point]",–
O=C(NCC1CCCO1)c1cc2c([nH]c3ccccc32)c(-c2cccc(Cl)c2)n1 (stereo unspecified),"6.31 µM [falling, full curve, poor fit]",–
CCC1C(=O)NCCN1Cc1nc(-c2ccc(C)s2)oc1C (stereo unspecified),"0.708 µM [rising, full curve, poor fit]",–
O=C1CC(Sc2ccc(Cl)cc2)C(=O)N1c1ccc2c(c1)OCCO2 (stereo unspecified),"12.6 µM [falling, single point]",–
CCOC(=O)c1ccc(NC(=O)c2c(C)[nH]c(C(=O)OCC)c2C)cc1,"4.61 µM [rising, full curve, poor fit]",–
COc1ccc(N2CC(C)Cn3c2nc2c3c(=O)n(Cc3ccc(C)cc3)c(=O)n2C)c(OC)c1 (stereo unspecified),"35.5 µM [falling, single point]",–
O=C(NNC(=O)c1cccs1)c1ccc(Cl)nc1,"20.6 µM [falling, partial curve]",–
N#Cc1ccc(S(=O)(=O)Nc2ccccc2N2CCOCC2)cc1,"29.1 µM [rising, single point]",–
CCN(CC)C(=O)c1cccc(NC(=O)c2cc(C3CC3)nc3c2cnn3C(C)C)c1,"29.1 µM [falling, partial curve, poor fit]",–
CCN1C(=O)/C(=C\c2ccc3c(c2)OCO3)C(C(=O)OC)=C1C,"6.31 µM [falling, partial curve]",–
Cc1nc(CS(=O)(=O)c2ccc(Cl)cc2)cc(Sc2ccc(Cl)cc2)n1,"29.1 µM [falling, single point]",–
COc1cc(C(=O)N2c3ccccc3CC2C)cc(OC)c1OC (stereo unspecified),"2.59 µM [falling, full curve, poor fit]",–

# Taken from above:
# AC50 [1] with NC(=S)N/N=C/c1cc([N+](=O)[O-])ccc1OCCOc1ccccc1 is entered as 18.4 µM [rising, single point]
# AC50 [1] with OCCN(CCO)c1ncnc2c1oc1ccc(Br)cc12 is entered as 0.0731 µM [rising, full curve, poor fit]
# AC50 [1] with CC1CCC(C(=O)c2c(O)c3ccccc3oc2=O)CC1 (stereo unspecified) is entered as 11.6 µM [falling, partial curve, poor fit]
# AC50 [1] with COc1cc(C(=O)N2c3ccccc3CC2C)cc(OC)c1OC (stereo unspecified) is entered as 2.59 µM [falling, full curve, poor fit]

# Further results.

Compound,AC50 [1],AC50 [2]
Cc1cc(C)c2c(=O)[nH]c(SCC(=O)N3CCOCC3)nc2n1,"0.501 µM [falling, full curve, poor fit]",–
COc1ccc(CN2CCN(C(=O)CCC(=O)Nc3nnc(C(F)(F)F)s3)CC2)cc1F,"0.794 µM [falling, full curve, poor fit]",–
CCOc1cc(C(c2c(C)[nH][nH]c2=O)c2c(C)[nH][nH]c2=O)cc(Br)c1OC,"25.1 µM [falling, single point]",–
O=C(N/N=C1\CC(c2ccccc2)Oc2ccccc21)c1ccc(O)cc1 (stereo unspecified),"0.355 µM [falling, full curve, poor fit]","22.4 µM [rising, partial curve, poor fit]"
O=C(COC(=O)c1ccccc1NS(=O)(=O)c1cccs1)NCC12CC3CC(CC(C3)C1)C2,"18.4 µM [falling, partial curve, poor fit]",–
CCNc1cc(Cl)nc(SC)n1,"10 µM [rising, partial curve]",–
O=C(O)CSc1nnnn1-c1ccccc1,"0.411 µM [rising, full curve, poor fit]",–
CN(C)S(=O)(=O)c1cccc(N=C2NN=C(c3ccccc3)CS2)c1,"14.6 µM [falling, partial curve]","20.6 µM [rising, single point]"
N#Cc1ccccc1CN1C(=O)NC2(CCCCCC2)C1=O,"12.6 µM [falling, single point]",–
O=C(CN1CCN(c2ccc(F)cc2)CC1)Nc1cccc(C(F)(F)F)c1,"1 µM [falling, full curve]",–
CCC(=O)Nc1ccccc1C(=O)OCC(=O)c1ccc2ccccc2c1,"16.4 µM [falling, partial curve, poor fit]","29.1 µM [rising, partial curve, poor fit]"
C=C1CCC[C@]2(C)C[C@H]3OC(=O)C(CN4CCCCC4CO)[C@H]3CC12 (stereo partly specified),"11.2 µM [falling, partial curve, poor fit]",–
Cc1ccc2[nH]c(=O)c(Cc3ccccc3)c(O)c2c1,"0.224 µM [rising, full curve, poor fit]",–
O=C1Nc2ccccc2Nc2ccccc21,"4.47 µM [rising, partial curve, poor fit]",–
Fc1ccccc1-c1nc2ccccc2[nH]1,"2.51 µM [falling, full curve]",–
O=[N+]([O-])c1cc(Br)c(Nc2ccccc2)c([N+](=O)[O-])c1,–,"35.5 µM [falling, single point]"
COc1ccc(N(CC(=O)Nc2ccccc2F)S(=O)(=O)c2ccc(C)c([N+](=O)[O-])c2)cc1,"11.2 µM [falling, single point]",–
COc1ccc(C2CC3(CC(C)(C)NC(=S)N3)Oc3cc(O)cc(C)c32)cc1 (stereo unspecified),"20.6 µM [falling, partial curve]","20.6 µM [rising, partial curve, poor fit]"
CCc1ccc(OCc2nnc(SCc3ccc(C(=O)O)cc3)o2)cc1,"0.447 µM [falling, partial curve, poor fit]",–

# Source: PubChem BioAssay AID493014 (National Center for Advancing Translational Sciences (NCATS), 2011)
